Test results as given in article PMC4471903.
No constants are given. Whether binding was seen depends on the method and setting. Binding seen in cells or lysates may run through a third protein. Some results given as binding are weak or reduced against the parent protein; the word gives no strength.

Protein sequences, listed by entry. Tags and fused reporters are not part of them. Lines headed by an entry give the natural chain unless they say otherwise; changes in a name come on top. Residues count along the entry.
UniProt Q13586, residues 23-685: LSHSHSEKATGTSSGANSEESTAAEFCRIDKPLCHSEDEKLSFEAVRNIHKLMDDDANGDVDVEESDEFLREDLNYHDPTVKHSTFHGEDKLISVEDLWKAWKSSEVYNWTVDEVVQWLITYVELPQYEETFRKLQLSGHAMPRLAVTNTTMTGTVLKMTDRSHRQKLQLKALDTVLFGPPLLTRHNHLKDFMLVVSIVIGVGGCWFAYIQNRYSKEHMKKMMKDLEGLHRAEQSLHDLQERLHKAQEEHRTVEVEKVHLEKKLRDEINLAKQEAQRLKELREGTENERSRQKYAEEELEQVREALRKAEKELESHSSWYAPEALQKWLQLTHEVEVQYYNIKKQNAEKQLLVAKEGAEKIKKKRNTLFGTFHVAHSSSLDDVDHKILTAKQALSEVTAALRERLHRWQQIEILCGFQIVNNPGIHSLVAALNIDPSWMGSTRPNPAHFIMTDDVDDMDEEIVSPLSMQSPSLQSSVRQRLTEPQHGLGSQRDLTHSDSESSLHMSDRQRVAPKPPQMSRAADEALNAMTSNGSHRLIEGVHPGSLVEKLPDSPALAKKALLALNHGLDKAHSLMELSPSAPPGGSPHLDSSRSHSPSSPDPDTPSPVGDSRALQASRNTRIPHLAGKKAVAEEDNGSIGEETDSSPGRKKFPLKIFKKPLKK
UniProt P31415: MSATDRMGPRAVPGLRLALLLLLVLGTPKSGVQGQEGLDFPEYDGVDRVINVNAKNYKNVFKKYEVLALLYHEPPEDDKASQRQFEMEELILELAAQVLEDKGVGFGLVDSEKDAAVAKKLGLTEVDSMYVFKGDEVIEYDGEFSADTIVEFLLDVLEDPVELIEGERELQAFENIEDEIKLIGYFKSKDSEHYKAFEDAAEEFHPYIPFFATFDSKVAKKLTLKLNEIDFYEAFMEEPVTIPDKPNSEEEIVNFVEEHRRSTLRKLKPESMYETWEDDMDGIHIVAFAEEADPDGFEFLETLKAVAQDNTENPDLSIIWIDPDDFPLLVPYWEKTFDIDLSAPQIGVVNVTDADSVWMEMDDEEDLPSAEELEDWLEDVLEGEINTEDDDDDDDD
Calsequestrin1 (CSQ1), endogenous (human (endogenous in HEK293)): residues 35-396 of P31415

Assays:
[1] = biological target: stromal interaction molecule 1 (STIM1) (human (endogenous in HEK293)) (UniProt Q13586); experiment: co-IP; reverse: HEK293 cells expressing HA-CSQ1, C9 or C35, 1 μM TG for 5 min; lysates precipitated with anti-STIM1 antibody, blot for the HA tag
[2] = biological target: HA-tagged CSQ1 C35 (deletion of wild-type amino acids 362-396) (human) (UniProt P31415); experiment: co-IP; HEK293 cells expressing HA-CSQ1, C9 or C35, in Ca2+-free HBSS, 1 μM TG for 5 min (also 20 μM TFP for 10 min before TG); lysates precipitated with anti-HA antibody, blot for endogenous STIM1
[3] = biological target: HA-tagged CSQ1 C9 (deletion of wild-type amino acids 388-396) (human) (UniProt P31415); experiment: as above
[4] = biological target: HA-tagged human wild-type CSQ1 (human) (UniProt P31415); experiment: as above
[5] = biological target: Calsequestrin1 (CSQ1), endogenous (human (endogenous in HEK293)) (UniProt P31415); experiment: co-IP; endogenous proteins in whole cell lysates of untransfected HEK293 cells; IP with anti-STIM1 mAb (blot Orai1) or anti-CSQ1 mAb (blot STIM1) and protein-G agarose, 4 °C overnight; cells in Ca2+-free HBSS with or without 1 μM TG for 5 min, with or without 20 μM TFP or 50 μM W7 beforehand; normal mouse IgG as negative control

binding [1] | binding [2] | binding [3] | binding [4] | binding [5] | Substance
binds | – | – | – | – | HA-tagged human wild-type CSQ1 (from UniProt P31415 35-396)
binds | – | – | – | – | HA-tagged CSQ1 C9 (deletion of wild-type amino acids 388-396) (from UniProt P31415 35-387) (domain or fragment)
binds weakly | – | – | – | – | HA-tagged CSQ1 C35 (deletion of wild-type amino acids 362-396) (from UniProt P31415 35-361) (domain or fragment)
– | binds weakly | binds | binds | binds | stromal interaction molecule 1 (STIM1) (from UniProt Q13586 23-685)
